Experimental data as given in publication PMC7797037.

Sequences of proteins named here, by UniProt entry; tags and fusion partners are left off.
UniProt A4D1E9: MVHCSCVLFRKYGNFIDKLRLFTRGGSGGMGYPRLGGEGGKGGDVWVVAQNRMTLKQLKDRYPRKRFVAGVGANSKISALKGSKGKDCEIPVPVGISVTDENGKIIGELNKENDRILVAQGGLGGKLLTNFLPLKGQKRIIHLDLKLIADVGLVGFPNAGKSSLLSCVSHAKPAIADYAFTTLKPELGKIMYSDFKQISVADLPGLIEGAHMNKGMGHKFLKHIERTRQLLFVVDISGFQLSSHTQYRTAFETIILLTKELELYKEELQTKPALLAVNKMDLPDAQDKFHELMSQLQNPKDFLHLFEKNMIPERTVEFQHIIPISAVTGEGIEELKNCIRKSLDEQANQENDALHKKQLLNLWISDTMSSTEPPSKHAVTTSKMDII

Molecular target: T1, GTPBP5::FLAG (C-terminal FLAG-tagged GTPBP5) (human) (UniProt Q9H4K7)
T1 sequence: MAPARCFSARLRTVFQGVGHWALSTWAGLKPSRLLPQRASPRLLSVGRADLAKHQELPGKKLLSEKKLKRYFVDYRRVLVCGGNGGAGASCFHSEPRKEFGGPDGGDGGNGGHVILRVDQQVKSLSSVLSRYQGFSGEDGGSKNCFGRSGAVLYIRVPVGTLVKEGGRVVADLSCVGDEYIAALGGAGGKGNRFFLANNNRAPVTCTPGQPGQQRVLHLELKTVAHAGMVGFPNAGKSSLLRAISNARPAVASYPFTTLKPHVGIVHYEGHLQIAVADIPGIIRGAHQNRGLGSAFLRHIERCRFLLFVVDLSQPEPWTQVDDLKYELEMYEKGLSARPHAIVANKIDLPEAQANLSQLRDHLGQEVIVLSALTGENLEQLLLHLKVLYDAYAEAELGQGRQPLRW
Test: affinity purification with mass spectrometry; FLAG-IP from lysate of mitochondria isolated from HEK293T expressing GTPBP5::FLAG (48 h), buffers with 5 mM MgCl2, elution with 3X FLAG peptide; label-free quantitative mass spectrometry against control HEK293T without FLAG protein, n = 3

binding | Substance
no binding | GTPBP10 (endogenous) (from UniProt A4D1E9 1-387)
no binding | bL36m (human (endogenous in HEK293T))
binds | MTG1 (GTPBP7) (human (endogenous in HEK293T))

No constants are given. Whether binding was seen depends on the method and setting. Binding seen in cells or lysates may run through a third protein. A yes stands for co-enrichment or nearness to the bait. Other partners may have been found. A no says only that the protein was not detected with the bait. Where a sequence is shown, tags or fusion partners need not be part of it.
